No constants are given. Whether binding was seen depends on the method and setting. In cells and extracts the contact can be indirect. Some results given as binding are weak or reduced against the parent protein; the word gives no strength.

Protein sequences, listed by entry. Tags and fused reporters are not part of them.
UniProt Q6KCD5: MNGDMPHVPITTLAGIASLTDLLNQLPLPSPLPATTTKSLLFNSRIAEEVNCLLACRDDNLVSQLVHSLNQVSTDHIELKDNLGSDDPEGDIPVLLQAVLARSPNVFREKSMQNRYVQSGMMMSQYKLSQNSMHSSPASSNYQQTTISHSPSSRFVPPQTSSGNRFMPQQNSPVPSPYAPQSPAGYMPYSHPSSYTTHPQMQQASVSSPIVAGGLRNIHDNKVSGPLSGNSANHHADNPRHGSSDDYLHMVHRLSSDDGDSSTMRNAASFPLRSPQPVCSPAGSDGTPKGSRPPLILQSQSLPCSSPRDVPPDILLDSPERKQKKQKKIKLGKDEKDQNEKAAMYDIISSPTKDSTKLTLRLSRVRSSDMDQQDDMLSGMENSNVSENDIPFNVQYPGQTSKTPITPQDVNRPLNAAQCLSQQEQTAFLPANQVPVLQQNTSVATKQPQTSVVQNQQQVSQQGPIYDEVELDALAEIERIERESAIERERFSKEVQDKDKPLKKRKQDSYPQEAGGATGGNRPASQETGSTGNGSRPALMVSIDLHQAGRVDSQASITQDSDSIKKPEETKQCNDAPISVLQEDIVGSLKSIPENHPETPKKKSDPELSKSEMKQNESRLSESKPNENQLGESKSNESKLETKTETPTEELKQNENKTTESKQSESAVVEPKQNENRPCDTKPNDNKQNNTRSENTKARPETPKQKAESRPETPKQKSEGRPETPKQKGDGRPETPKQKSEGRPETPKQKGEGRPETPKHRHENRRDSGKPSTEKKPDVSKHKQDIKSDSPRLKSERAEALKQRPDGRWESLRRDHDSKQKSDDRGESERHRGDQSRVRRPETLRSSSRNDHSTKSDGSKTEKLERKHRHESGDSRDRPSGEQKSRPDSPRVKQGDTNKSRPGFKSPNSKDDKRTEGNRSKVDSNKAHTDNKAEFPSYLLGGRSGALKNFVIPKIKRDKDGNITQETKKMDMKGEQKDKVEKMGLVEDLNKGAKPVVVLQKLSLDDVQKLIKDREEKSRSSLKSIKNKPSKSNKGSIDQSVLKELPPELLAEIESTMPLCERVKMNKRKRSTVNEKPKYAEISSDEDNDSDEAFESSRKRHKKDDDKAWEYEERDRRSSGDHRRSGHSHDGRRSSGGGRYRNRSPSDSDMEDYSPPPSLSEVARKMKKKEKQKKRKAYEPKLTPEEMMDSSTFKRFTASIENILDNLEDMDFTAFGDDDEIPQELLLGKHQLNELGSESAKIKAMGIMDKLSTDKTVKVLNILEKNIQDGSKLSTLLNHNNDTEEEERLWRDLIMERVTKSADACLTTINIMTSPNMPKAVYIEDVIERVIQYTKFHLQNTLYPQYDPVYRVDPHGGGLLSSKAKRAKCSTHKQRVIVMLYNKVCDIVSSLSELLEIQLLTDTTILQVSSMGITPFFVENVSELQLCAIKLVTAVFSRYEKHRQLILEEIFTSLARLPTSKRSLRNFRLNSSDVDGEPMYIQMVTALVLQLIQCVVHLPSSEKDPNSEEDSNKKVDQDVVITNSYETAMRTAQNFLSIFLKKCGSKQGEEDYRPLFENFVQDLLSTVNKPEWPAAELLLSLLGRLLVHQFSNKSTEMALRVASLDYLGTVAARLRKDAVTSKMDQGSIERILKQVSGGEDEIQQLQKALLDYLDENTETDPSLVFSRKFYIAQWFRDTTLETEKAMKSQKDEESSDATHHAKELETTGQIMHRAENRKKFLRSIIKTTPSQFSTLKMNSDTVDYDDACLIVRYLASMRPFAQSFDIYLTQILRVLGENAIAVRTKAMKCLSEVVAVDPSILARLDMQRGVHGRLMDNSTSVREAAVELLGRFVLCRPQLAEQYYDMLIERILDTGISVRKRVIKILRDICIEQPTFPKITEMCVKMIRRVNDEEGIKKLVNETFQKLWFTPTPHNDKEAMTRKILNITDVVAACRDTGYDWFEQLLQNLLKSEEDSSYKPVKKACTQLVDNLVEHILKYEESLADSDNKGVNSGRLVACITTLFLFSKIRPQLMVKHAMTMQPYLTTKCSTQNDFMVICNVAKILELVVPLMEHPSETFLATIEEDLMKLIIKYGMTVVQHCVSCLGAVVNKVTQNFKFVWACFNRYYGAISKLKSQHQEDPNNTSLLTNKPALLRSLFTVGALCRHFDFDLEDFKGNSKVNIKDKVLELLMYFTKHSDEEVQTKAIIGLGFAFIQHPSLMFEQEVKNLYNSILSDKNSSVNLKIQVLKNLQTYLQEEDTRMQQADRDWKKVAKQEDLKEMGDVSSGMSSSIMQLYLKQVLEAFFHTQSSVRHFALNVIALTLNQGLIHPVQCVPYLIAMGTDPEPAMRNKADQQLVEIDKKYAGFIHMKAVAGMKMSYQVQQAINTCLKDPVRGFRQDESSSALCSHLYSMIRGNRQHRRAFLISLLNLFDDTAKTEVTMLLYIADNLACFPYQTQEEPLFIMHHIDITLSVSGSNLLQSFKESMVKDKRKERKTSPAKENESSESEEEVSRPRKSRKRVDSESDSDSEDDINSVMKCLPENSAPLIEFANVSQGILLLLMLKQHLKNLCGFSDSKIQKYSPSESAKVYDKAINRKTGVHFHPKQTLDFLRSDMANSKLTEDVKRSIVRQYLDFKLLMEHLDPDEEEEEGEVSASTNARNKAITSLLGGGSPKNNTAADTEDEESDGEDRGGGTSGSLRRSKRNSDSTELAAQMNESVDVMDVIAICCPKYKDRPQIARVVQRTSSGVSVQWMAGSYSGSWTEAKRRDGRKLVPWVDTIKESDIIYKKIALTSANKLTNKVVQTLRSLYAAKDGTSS
UniProt Q9CW03: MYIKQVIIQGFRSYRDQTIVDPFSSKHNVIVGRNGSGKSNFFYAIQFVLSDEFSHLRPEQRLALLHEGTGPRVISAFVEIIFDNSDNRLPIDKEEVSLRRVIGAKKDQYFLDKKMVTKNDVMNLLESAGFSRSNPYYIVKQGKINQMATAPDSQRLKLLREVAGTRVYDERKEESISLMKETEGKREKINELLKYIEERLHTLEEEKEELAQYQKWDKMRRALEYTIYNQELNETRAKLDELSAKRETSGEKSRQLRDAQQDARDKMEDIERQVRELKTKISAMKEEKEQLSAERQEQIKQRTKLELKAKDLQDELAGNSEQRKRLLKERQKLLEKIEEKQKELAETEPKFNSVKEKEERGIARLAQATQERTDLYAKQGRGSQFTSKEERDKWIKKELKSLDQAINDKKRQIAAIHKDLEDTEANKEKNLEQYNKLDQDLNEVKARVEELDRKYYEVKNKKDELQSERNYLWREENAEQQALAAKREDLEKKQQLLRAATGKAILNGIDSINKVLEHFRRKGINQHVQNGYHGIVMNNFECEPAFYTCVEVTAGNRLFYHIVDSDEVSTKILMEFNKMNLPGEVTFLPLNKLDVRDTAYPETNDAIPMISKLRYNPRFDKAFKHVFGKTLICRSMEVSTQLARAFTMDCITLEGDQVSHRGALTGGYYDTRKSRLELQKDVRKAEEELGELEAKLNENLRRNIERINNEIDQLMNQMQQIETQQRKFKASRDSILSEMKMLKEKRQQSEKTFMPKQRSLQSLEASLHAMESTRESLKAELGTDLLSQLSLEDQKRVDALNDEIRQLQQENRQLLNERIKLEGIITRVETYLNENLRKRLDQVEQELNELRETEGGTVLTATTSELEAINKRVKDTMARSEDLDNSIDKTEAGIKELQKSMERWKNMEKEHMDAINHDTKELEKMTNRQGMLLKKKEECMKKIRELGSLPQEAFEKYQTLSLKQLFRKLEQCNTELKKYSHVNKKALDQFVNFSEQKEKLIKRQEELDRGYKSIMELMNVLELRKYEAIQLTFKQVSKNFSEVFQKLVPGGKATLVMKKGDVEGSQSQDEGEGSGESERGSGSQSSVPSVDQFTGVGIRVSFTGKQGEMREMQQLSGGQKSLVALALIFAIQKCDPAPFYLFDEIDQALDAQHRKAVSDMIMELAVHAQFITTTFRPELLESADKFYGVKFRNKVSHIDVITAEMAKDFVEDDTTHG

The record followed here is paper PMC9392266.

The target of assay [1] is NIPBL (mouse (endogenous in mESCs)) (UniProt Q6KCD5). The assay is described as follows: co-IP; IP of SMC3 and NIPBL from WT siGLO and Pds5a-/- siPds5b mESC nuclear lysates (Benzonase-digested), high stringency conditions; antibody on Protein G Dynabeads; western blot.
Assay [2] has as its target SMC3 (mouse (endogenous in mESCs)) (UniProt Q9CW03). The assay is described as above.

B1: CTCF (protein, UniProt Q61164 1-736)
chain: MEGEAVEAIVEESETFIKGKERKTYQRRREGGQEEDACHLPQNQTDGGEVVQDVNSSVQMVMMEQLDPTLLQMKTEVMEGTVAPEAEAAVDDTQIITLQVVNMEEQPINIGELQLVQVPVPVTVPVATTSVEELQGAYENEVSKEGLAESEPMICHTLPLPEGFQVVKVGANGEVETLEQGELPPQEDSSWQKDPDYQPPAKKTKKTKKSKLRYTEEGKDVDVSVYDFEEEQQEGLLSEVNAEKVVGNMKPPKPTKIKKKGVKKTFQCELCSYTCPRRSNLDRHMKSHTDERPHKCHLCGRAFRTVTLLRNHLNTHTGTRPHKCPDCDMAFVTSGELVRHRRYKHTHEKPFKCSMCDYASVEVSKLKRHIRSHTGERPFQCSLCSYASRDTYKLKRHMRTHSGEKPYECYICHARFTQSGTMKMHILQKHTENVAKFHCPHCDTVIARKSDLGVHLRKQHSYIEQGKKCRYCDAVFHERYALIQHQKSHKNEKRFKCDQCDYACRQERHMIMHKRTHTGEKPYACSHCDKTFRQKQLLDMHFKRYHDPNFVPAAFVCSKCGKTFTRRNTMARHADNCAGPDGVEGENGGETKKSKRGRKRKMRSKKEDSSDSEENAEPDLDDNEEEEEPAVEIEPEPEPQPQPPPPPQPVAPAPPPAKKRRGRPPGRTNQPKQNQPTAIIQVEDQNTGAIENIIVEVKKEPDAEPAEGEEEEAQAATTDAPNGDLTPEMILSMMDR
For B1, the binding entry in assay [1] was “binds”.

B2: WAPL (protein, UniProt Q65Z40 1-1200)
chain: MTSRFGKTYSRKGGNGSSKFDEVFSNKRTTLSTKWGETTFMAKLGQKRPNFKPDIQEIPKKPKVEEEDTGDPFGFDSDDESLPVSSKNLAQGKGSSYSESSEAAQLEEVTSVFEANSKCSHVVGEDSFASDRCLLVEDTLIGKEKSISRIPEDNANKSSCTKLLTSDKVENFSEEHEKNSHHFHKNAEDSTKKPNAETAVASEYKADETKETNDTWNSQSGKRTESPSESCPVKGSVRTGLYEWDNDFEDIRSEDCILSLDNESLLEMKDEDLKNRIGGLENLNETFEEDIIQSVLRPSNCRTYCRANKARSSQGASNFDKLMDGTSQSLAKANSESSKDGLNQAKKGSASCGTSFRGTVGRTRDYTVLHPSCLSVCNVTIQDTMERSMDEFTASTPADLGEAGRLRKKADIATSKTTTRFRPSNTKSKKDVKLEFFGFEDHDETGGDEGGSGSSNYKIKYFGFDDLSESEDDDDDDCQVERKKDKKRTKTAPSPSQQPPPESSDNSQDSQSSTNNAENLDFTEDLPGVPESVKKPISKQGDKSKENTRKIFSGPKRSPTKAVYNARHWNHPDSEELPGPPIAKPQRVTVRLSSKEPNQKDDGVFKAPAPPLKVIKTVTIPTQPYQEIVTALKCRKEDKELYTVVQHVKHFNDVVEFGENQEFTDDIEYLLSGLKSTQPLNTRCLSVISLATKCAMPSFRMHLRAHGMVAMVFKTLDDSQHHQNLSLCTAALMYILSRDRLNMDLDRASLDLMIRLLELEQDASSAKLLNEKDMNKIKEKIRRLCETVHNKHLDLENITTGHLAMETLLSLTSKRAGDWFKEELRLLGGLDHIVDKVKECVDHLSRDDEDEEKLVASLWGAERCLRVLESVTVHNPENQSYLIAYKDSQLIISSAKALQHCEDLIQQYNRAENSICVADSNPLPYQNVTNHVGKAVEDCMRAIIGVLLNLTNDNEWGSTKTGEQEGLIGTAMNCVLQVPKYLPQEQRFDIRVLGLGLLINLVEYSARNRHCLVNMQTSCSFDSSFSSGEGDHSLRLAGQVHAVQALVQLFLERERAAQLAESKTDELIKDAPTTQHDKSGEWQETSGEIQWVSTEKTDGAEEKQKKEEEDEELDLNKALQHAGKHMEDCIVASYTALLLGCLCQESPINVTTVREYLPEGDFSIMTEMLKKFLSFMNLTCAVGTTGQKSISRVIEYLEHC
As for B2, in assay [2], the binding result was “binds”.
